This note sets out measurements from article PMC12040169 (PLOS Biology, 2025).

This is one part of the list.

The assay relates to T1, CTL2-GFP (C. trachomatis L2/434/Bu, GFP-expressing).
T1 construct: L2/434/Bu, GFP-expressing
More on the design: species or system HeLa; Intracellular C. trachomatis growth in HeLa cells, bulk GFP fluorescence relative to DMSO. To be noted: bulk GFP, single well; 28.5 h, 10 µM; inhibitor.
Take `Cc1cnn(CCC(=O)N2CCOC(c3nc(C(C)(C)C)n[nH]3)C2)c1` (stereo not drawn) [CBK305336]: the “% of control remaining” value is listed as 109.803%.
Regarding `C(=N\Nc1nnc(-c2ccccc2)c(-c2ccccc2)n1)/c1cccnc1` [CBK262025], the “% of control remaining” value stood at 130.609%.
With `CCCCCC1CC(CC(=O)NC(=S)Nc2ccccc2Cl)C(=O)O1` (stereo not drawn) [CBK019495], the “% of control remaining” value was 112.955%.
As to `O=C(NCCc1cccs1)NC1CCCc2c1cnn2CCO` (stereo not drawn) [CBK306324], the “% of control remaining” value was found to be 130.181%.
As for `CN1CCN(c2ccc(NC(=S)NC(=O)c3cc4ccccc4o3)cc2)CC1` [CBK266240], the “% of control remaining” value was 181.877%.
Consider `CN(Cc1ccc(N2CCCCC2)cc1)S(=O)(=O)c1ccsc1C(=O)O` [CBK295333], for which the “% of control remaining” value is recorded as 159.611%.
The value for `Cc1ccc(CN(CC(=O)N2CCCCC2)S(=O)(=O)c2ccc(C)cc2)cc1` [CBK264646] was 100%.
In the case of `Cc1nn(C)c(C)c1CC(=O)Nc1cccc(CN2CCCCC2)c1` [CBK304547], the “% of control remaining” value stood at 83.6789%.
As for `FC(F)(F)c1ccc(OCCOc2ccccc2)nc1` [CBK115829], the “% of control remaining” value is given as 125.66%.
For `C/C(=C\C(=O)Nc1ccc(O)cc1C(=O)O)c1ccccc1` [CBK265125], the “% of control remaining” value came out at 98.7535%.
For the compound `O=C(c1ccccc1F)N1CCC(O)(c2ccc(F)cc2)CC1` [CBK281943], the “% of control remaining” value came out at 160.455%.
With `O=C1N(CN2CCN(C(c3ccccc3)c3ccccc3)CC2)c2ccccc2C12OCCCO2` [CBK265538], the “% of control remaining” value amounted to 100%.
With `CCCc1[nH]nc(O)c1CCc1c(F)cccc1Cl` [CBK081121], the “% of control remaining” value is listed as 137.937%.
The result for `O=C1CO[C@H]2CN(S(=O)(=O)c3ccccc3)C[C@H]2N1c1ccccc1` [CBK289236] reads 131.91%; that for `COc1ccc(C)cc1NC(=O)CCN1CCN(C)CC1` [CBK264216], 130.942%.
For the compound `NCCNC(=O)c1cc2cc(F)ccc2[nH]1` [CBK107345], the “% of control remaining” value was found to be 114.53%.
For `Oc1ccc(/C=N/N=C/c2ccc(O)c(O)c2)cc1O` [CBK261641], the “% of control remaining” value is 97.1557%.
For the compound `Cc1ccc(C(=O)NCCCc2ccc(Cl)cc2)c(=O)n1C` [CBK281567], the “% of control remaining” value stood at 127.131%.
The value for `O=C(O)CCCC(=O)Nc1ccccc1Br` [CBK261322] was 103.645%; that for `Cc1ccc(C)c(C2CCCN2C(=O)c2ccc(=O)n(CC(=O)N(C)c3ccccc3)c2)c1` (stereo not drawn) [CBK285654] was 108.372%.
Regarding `O=C(NCc1ccccn1)c1ccc(CNS(=O)(=O)c2cccc(C(F)(F)F)c2)cc1` [CBK267291], the “% of control remaining” value is 149.983%.
On to `O=C(c1ccc2c(c1)ncn2CCO)N1CCC(c2ccccc2F)C1` (stereo not drawn) [CBK307075], for which the “% of control remaining” value came out at 121.49%.
The result for `C[S+]([O-])CCNC(=O)Cn1c(-c2cccs2)cc2cccnc21` (stereo not drawn) [CBK282556] reads 111.557%; that for `CN1CCN(c2nccnc2OCC2COc3ccccc3O2)CC1` (stereo not drawn) [CBK003899C], 129.684%; that for `Cc1ccc2[nH]c(=O)c(CNc3ccc4[nH]ncc4c3)cc2c1` [CBK281936], 135.91%.
As for `CC(C)c1ccc(S(=O)(=O)NCCC#N)cc1` [CBK044722], the “% of control remaining” value was 83.2771%.
As to `O=C(CN1C(=O)CSc2ccccc21)Nc1ccccc1C(=O)N1CCOCC1` [CBK267343], the “% of control remaining” value was determined as 133.147%.
As to `O=C(NCc1cccs1)c1ccccc1-n1cccc1` [CBK149584], the “% of control remaining” value is reported as 104.269%.
Turning to `Cc1cc(C)nc(Nc2n[nH]c(-c3ccccc3Cl)n2)n1` [CBK288167], the “% of control remaining” value was determined as 117.573%.
`OCCCNC(=S)Nc1ccc(Br)cc1Cl` [CBK086487]: the “% of control remaining” value was found to be 123.795%.
The result for `O=C(Cc1c[nH]c2ccccc12)N1CCC2(CCCN(C(=O)c3c(F)cccc3F)C2)C1` (stereo not drawn) [CBK131605] reads 106.992%.
For the compound `O=C(Nc1ccccc1)[C@H]1O[C@H](CCN2CCN(c3ccccc3)CC2)CC[C@@H]1O` [CBK288725], the “% of control remaining” value was determined as 119.63%.
As for `CS(=O)(=O)c1ccc(-c2cnc3nc(N)ccc3c2)cc1` [CBK061916], the “% of control remaining” value was determined as 106.523%.
On to `Cc1ccc(-c2n[nH]c(=S)n2CC(=O)N(C)Cc2ccc(N3CCOCC3)cc2)cc1` [CBK297908], for which the “% of control remaining” value stood at 164.601%.
In the case of `Nc1nonc1OCCCCOc1nonc1N` [CBK027716], the “% of control remaining” value is given as 105.043%.
The value for `Cc1nnc(SCCN2CCOC2=O)n1CCc1cccs1` [CBK304029] was 145.152%; that for `COc1ccc(-c2csc(Nc3ccc(S(=O)(=O)Nc4cc(C)on4)cc3)n2)cc1OC` [CBK261797B] was 94.1394%; that for `Cc1nc2cc(-c3nccn3C)nn2c(N2CCN(c3ccc(O)cc3)CC2)c1C` [CBK286427] was 123.226%.
The value for `Clc1cccc(CN2CCC(N3CCN(c4ccccc4)CC3)CC2)c1` [CBK264690G] was 100%; that for `O=C(CSCc1ccccc1Cl)NNC(=O)c1cccnc1` [CBK267826] was 83.5502%.
The value for `O=C(NC1CCCCC1)N1CC[C@H](c2nc3ccccc3o2)C1` [CBK289372] was 115.236%; that for `Cc1nc(-c2ccc(NCCc3nc(C4CC4)cs3)nc2)[nH]c(=O)c1C` [CBK304424] was 77.2511%.
For the compound `CCc1cccc(-n2nc(C)c3c2NC(=O)CC3C(=O)c2ccc(CC)s2)c1` (stereo not drawn) [CBK294435], the “% of control remaining” value came to 98.2707%.
For the compound `Cc1ccc(-c2nnc(SCC(=O)Nc3ccc(N4CCOCC4)cc3)n2C)cc1` [CBK270247], the “% of control remaining” value is 137.422%.
With `CCn1nccc1N1CCCC(NC(=O)CCc2ccccc2Cl)C1=O` (stereo not drawn) [CBK305455], the “% of control remaining” value came to 81.9846%.
The value for `COC(=O)CC(C)(C)/C(C)=N/NS(=O)(=O)c1ccc(C)cc1` [CBK263602] was 130.1%.
On to `Nc1nonc1-c1nc2ccccc2n1Cc1ccc(-c2nn[nH]n2)cc1` [CBK267648], for which the “% of control remaining” value was 109.709%.
The value for `COc1cccc(CN2CCN(C(=O)c3cc(C)[nH]c3C)[C@@H](C)C2)c1` [CBK284255] was 128.425%; that for `COc1ccc(Nc2ccc(-c3cccc(OC(F)(F)F)c3)cn2)cn1` [CBK037022] was 191.441%.
The result for `COc1ccc(Cl)cc1NC(=O)NC(=O)C1CCN(CCOc2cccc3ccccc23)CC1` [CBK035116] reads 100.468%; that for `COC1CCCC(C(=O)N2CCC(c3onc4c3CCCC4)CC2)C1` (stereo not drawn) [CBK284598], 107.505%.
